Values from PubChem BioAssay AID1224826 (NIAID, 2016)
Test: 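Knock-downs that raise or lower Tnf reporter signal after endotoxin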 (primary screen). Cells: RAW264.7 G9 macrophages from mouse bearing reporters for p65 (GFP) and the Tnf promoter (mCherry). Reagents: siRNA pool against mouse genes, 100 nM. Timing: 16 h of LPS stimulation, after 2 days of siRNA transfection. Treatment: bacterial lipopolysaccharide (Salmonella minnesota R595), 10 ng/ml. Read-out: 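Nuclear mCherry signal of the Tnf promoter reporter measured by imaging after background removal, scaled to each plate median and turned into robust z-scores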. Reading the numbers: Tnf reporter robust z-score: higher = stronger Tnf promoter reporter signal after LPS; Tnf reporter intensity: higher = stronger Tnf promoter reporter signal. Active means: 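Called active when robust z-score is at most -1.3, matching the median of the Tlr4 knock-down control, or over 3; control wells and wells with under 50 cells never active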. Meaning of the calls: active = Tnf reporter clearly lowered or raised; inactive = no clear change in Tnf reporter.
Here is one part, drawn at random, of about 17,000 reagents tested. In the full data, about 1,110 (6.6%) got an active call. 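Active means lowered or raised reporter signal; replicate intensities are raw and not normalised per plate.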 A number with no mark means an inactive call. The numbers tell different reagents against one gene apart.

Target gene | reagent | Tnf reporter robust z-score | fewer than 50 cells in well | Tnf reporter intensity, replicate 1 | Tnf reporter intensity, replicate 2
Lhfpl1 (lipoma HMGIC fusion partner-like 1) | 1 | 0.12 | enough cells in well | 200 | 150
Zfp472 (zinc finger protein 472) | 1 | 0.25 | enough cells in well | 77.3 | 139
Mrpl49 (mitochondrial ribosomal protein L49) | 1 | 0.28 | enough cells in well | 149 | 171
Amotl2 (angiomotin-like 2) | 1 | -1.53 (active) | enough cells in well | 107 | 83.1
Cyp2b19 (cytochrome P450, family 2, subfamily b, polypeptide 19) | 1 | 0.93 | enough cells in well | 283 | 189
Pdgfc (platelet-derived growth factor, C polypeptide) | 1 | -0.1 | enough cells in well | 145 | 74
Dguok (deoxyguanosine kinase) | 1 | – | fewer than 50 cells per well; well left out of calls | 125 | 80.3
Cd248 (CD248 antigen, endosialin) | 1 | -0.16 | enough cells in well | 165 | 155
Ttll1 (tubulin tyrosine ligase-like 1) | 1 | -0.67 | enough cells in well | 92.9 | 56
Rwdd3 (RWD domain containing 3) | 1 | 1.42 | enough cells in well | 284 | 130
Rwdd3 (RWD domain containing 3) | 2 | -1.64 (active) | enough cells in well | 70.7 | 43.4
Dph7 (diphthamine biosynethesis 7) | 1 | 0.05 | enough cells in well | 203 | 56.9
Dhrs9 (dehydrogenase/reductase 9) | 1 | 0.7 | enough cells in well | 281 | 160
Fzd3 (frizzled class receptor 3) | 1 | -0.47 | enough cells in well | 152 | 300
Nr2e1 (nuclear receptor subfamily 2, group E, member 1) | 1 | -0.15 | enough cells in well | 236 | 167
Sec62 (SEC62 homolog, preprotein translocation) | 1 | – | fewer than 50 cells per well; well left out of calls | 76.7 | 9.56

Continued, starting with the last 3 of the part before.
Target gene | reagent | Tnf reporter robust z-score | fewer than 50 cells in well | Tnf reporter intensity, replicate 1 | Tnf reporter intensity, replicate 2
Fzd3 (frizzled class receptor 3) | 1 | -0.47 | enough cells in well | 152 | 300
Nr2e1 (nuclear receptor subfamily 2, group E, member 1) | 1 | -0.15 | enough cells in well | 236 | 167
Sec62 (SEC62 homolog, preprotein translocation) | 1 | – | fewer than 50 cells per well; well left out of calls | 76.7 | 9.56
Wap (whey acidic protein) | 1 | 0.7 | enough cells in well | 174 | 88.5
Srsf3 (serine and arginine-rich splicing factor 3) | 1 | -1.38 (active) | enough cells in well | 136 | 127
Ehd4 (EH-domain containing 4) | 1 | -0.59 | enough cells in well | 162 | 84.2
Ptgr3 (prostaglandin reductase 3) | 1 | -0.46 | enough cells in well | 90.9 | 137
Abra (actin-binding Rho activating protein) | 1 | -0.2 | enough cells in well | 110 | 186
Mettl27 (methyltransferase like 27) | 1 | -0.71 | enough cells in well | 143 | 172
Grik1 (glutamate receptor, ionotropic, kainate 1) | 1 | -0.7 | enough cells in well | 179 | 196
Vmn2r-ps11 (vomeronasal 2, receptor, pseudogene 11) | 1 | 0.41 | enough cells in well | 243 | 73.6
